From the supplement of paper PMC11006884
The targets with a hit were mostly taken out for another list; the other results follow. Single values of this set are uncertain. This is a selection; strong and weak results do not stand in their true shares.

Chains of the proteins cited; added tags and fusions are not shown. Lines headed by an entry give the natural chain unless they say otherwise; changes in a name come on top.
UniProt P36776: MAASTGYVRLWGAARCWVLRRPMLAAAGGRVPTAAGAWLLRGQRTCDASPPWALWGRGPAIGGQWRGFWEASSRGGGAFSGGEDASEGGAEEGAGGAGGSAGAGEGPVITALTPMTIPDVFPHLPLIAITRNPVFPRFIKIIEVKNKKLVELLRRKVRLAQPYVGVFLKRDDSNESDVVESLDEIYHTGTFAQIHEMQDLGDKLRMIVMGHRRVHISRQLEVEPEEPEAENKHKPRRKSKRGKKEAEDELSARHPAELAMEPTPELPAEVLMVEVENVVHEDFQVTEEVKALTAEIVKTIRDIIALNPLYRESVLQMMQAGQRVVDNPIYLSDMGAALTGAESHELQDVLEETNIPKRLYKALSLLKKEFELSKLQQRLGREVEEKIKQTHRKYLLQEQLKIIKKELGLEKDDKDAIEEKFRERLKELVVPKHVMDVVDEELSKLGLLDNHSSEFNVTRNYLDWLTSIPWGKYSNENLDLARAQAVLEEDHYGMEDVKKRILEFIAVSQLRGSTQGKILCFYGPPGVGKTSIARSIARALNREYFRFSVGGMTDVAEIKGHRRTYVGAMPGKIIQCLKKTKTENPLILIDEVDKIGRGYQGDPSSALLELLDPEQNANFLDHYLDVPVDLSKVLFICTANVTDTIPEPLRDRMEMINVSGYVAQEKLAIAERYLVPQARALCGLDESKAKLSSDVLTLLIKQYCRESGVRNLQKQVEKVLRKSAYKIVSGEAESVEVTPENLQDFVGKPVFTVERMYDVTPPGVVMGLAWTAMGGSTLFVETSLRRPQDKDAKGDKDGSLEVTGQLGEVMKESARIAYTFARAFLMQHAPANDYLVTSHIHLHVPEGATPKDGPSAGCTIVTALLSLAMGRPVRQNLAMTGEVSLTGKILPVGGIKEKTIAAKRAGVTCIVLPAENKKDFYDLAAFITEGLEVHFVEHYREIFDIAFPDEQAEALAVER
UniProt P42126: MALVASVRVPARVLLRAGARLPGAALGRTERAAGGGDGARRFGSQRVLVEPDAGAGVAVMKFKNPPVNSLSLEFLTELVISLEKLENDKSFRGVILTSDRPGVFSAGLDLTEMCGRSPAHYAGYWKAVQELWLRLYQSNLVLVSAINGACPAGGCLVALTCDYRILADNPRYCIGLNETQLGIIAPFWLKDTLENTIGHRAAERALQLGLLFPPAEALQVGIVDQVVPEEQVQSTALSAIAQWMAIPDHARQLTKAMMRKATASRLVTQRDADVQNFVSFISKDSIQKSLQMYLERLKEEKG
UniProt P30153, whole entry, looked up: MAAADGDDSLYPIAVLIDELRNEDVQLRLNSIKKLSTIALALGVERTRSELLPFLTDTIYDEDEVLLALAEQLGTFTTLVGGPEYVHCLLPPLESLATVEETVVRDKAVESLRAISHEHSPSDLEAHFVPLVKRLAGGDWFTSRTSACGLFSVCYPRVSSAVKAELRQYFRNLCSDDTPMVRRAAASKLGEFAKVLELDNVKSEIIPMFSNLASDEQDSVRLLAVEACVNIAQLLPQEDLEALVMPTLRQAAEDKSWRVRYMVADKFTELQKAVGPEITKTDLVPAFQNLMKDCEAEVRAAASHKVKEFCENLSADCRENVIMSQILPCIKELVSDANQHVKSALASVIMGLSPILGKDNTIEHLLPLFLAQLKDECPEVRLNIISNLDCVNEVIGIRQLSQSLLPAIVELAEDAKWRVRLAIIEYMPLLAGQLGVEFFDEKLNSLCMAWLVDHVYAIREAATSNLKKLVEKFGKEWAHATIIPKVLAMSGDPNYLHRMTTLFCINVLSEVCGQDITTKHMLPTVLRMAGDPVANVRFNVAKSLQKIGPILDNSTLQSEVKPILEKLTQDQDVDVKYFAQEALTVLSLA
UniProt P40926: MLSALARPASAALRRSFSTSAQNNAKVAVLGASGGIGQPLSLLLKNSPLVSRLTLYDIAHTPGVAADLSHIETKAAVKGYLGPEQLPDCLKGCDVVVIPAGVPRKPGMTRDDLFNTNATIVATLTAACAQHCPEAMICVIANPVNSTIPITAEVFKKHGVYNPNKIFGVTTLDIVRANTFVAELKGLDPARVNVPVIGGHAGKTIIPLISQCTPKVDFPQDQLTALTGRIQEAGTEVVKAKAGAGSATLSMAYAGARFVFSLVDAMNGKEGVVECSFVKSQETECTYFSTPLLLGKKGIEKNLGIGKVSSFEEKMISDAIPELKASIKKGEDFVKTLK
UniProt P33981: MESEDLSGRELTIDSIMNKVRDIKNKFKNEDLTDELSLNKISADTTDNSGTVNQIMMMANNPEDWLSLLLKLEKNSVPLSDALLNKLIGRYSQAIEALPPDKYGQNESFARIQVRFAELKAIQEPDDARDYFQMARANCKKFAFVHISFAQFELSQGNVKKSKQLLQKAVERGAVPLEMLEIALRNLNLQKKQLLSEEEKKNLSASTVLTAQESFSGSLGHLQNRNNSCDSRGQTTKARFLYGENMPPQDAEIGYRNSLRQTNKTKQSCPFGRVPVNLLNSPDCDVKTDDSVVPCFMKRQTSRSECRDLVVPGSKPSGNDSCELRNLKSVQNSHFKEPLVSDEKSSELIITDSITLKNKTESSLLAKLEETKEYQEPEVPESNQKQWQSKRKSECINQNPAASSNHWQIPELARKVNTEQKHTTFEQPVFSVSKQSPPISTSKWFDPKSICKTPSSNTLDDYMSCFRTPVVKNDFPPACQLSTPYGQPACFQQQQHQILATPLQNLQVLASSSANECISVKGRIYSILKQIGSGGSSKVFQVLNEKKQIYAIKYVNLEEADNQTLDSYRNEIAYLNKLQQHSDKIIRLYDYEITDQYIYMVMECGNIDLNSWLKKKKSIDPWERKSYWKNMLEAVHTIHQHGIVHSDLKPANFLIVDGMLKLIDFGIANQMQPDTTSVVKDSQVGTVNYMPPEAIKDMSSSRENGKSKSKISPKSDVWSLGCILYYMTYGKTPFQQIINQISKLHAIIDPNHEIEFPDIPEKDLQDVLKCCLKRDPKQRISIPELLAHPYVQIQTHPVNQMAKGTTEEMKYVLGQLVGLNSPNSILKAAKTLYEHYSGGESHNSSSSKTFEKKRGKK
UniProt P40855: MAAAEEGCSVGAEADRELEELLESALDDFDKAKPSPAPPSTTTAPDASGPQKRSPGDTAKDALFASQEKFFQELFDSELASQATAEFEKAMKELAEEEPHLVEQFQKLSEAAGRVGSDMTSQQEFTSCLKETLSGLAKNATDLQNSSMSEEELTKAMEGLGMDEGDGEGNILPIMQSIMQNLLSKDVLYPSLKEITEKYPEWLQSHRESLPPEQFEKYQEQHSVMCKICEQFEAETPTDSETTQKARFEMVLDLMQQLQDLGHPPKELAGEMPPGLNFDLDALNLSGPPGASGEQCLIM
UniProt P42166: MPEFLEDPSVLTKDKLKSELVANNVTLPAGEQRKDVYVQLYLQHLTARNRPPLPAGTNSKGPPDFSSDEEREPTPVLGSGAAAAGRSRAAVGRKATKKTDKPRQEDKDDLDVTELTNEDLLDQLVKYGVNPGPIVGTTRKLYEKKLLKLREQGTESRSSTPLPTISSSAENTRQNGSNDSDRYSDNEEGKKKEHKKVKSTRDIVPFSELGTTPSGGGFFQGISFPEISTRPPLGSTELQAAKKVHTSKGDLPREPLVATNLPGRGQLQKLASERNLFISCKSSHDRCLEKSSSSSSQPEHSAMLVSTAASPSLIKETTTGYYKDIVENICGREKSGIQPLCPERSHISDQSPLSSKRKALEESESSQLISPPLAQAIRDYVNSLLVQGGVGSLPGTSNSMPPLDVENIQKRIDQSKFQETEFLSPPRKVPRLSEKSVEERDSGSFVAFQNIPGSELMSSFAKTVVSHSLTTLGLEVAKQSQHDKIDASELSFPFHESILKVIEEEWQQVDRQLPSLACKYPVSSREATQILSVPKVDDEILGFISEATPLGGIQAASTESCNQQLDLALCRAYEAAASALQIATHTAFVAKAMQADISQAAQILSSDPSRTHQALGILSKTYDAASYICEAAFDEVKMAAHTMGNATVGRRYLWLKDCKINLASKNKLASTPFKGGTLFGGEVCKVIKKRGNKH
UniProt P33991: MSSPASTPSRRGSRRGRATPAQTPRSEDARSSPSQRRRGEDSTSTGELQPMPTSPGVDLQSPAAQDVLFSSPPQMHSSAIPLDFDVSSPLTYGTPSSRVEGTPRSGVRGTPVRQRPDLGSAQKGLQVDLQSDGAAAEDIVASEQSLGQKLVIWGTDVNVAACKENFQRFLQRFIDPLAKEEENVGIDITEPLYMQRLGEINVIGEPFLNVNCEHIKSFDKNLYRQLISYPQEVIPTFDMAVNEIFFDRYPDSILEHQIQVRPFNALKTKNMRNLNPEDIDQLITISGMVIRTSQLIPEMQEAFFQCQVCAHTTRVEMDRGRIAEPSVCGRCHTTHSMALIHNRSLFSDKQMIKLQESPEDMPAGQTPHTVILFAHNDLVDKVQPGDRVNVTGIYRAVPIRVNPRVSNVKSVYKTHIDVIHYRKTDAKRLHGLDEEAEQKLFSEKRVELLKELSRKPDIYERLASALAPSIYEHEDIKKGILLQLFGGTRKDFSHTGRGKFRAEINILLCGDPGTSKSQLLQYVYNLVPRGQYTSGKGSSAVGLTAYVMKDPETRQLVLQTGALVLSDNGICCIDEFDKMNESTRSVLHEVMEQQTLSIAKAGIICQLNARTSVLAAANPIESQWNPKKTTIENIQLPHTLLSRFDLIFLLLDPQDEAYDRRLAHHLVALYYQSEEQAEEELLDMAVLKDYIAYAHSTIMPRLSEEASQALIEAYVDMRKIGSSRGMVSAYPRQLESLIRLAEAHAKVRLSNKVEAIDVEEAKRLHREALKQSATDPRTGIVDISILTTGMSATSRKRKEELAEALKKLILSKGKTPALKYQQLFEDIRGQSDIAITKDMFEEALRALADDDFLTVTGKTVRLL
UniProt P30519: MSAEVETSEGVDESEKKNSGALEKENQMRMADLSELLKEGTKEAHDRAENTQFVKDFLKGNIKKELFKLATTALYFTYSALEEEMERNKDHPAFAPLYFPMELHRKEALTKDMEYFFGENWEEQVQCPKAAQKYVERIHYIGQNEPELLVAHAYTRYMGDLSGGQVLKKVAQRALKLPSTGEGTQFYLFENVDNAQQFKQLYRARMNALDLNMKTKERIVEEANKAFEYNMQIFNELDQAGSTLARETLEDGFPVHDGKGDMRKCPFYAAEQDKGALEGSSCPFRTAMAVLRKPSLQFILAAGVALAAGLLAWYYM
UniProt P42224: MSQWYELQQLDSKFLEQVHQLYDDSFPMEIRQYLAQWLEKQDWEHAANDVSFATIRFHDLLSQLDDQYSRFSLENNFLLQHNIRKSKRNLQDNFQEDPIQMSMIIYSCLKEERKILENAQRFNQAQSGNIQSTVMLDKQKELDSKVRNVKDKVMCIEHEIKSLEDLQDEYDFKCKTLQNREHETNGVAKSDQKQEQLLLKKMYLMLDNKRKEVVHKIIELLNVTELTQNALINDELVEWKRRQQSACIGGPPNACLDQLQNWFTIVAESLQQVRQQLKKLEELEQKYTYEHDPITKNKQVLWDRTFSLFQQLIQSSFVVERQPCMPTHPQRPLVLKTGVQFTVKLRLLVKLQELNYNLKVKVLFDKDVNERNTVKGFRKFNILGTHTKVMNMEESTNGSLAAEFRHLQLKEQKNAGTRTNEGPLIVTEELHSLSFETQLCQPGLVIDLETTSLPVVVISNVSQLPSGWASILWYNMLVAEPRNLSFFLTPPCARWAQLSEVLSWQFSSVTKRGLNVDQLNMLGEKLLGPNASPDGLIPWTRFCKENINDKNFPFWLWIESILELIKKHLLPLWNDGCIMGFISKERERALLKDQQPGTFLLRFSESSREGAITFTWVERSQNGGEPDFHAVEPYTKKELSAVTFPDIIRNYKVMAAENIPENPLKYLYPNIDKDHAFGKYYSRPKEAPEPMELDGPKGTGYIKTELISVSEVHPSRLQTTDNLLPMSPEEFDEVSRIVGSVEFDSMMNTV
UniProt P31150: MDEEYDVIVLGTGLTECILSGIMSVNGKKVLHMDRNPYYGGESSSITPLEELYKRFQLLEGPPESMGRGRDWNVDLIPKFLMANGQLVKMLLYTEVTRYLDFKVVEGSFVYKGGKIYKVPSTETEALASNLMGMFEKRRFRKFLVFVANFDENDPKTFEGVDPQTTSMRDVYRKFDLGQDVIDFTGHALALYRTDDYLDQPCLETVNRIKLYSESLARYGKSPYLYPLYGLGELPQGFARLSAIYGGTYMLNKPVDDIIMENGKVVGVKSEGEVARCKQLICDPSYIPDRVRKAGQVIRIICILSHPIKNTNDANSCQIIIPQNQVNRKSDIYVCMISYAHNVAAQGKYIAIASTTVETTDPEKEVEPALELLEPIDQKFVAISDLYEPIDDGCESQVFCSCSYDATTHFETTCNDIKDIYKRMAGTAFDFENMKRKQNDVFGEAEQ

Each target was assayed with COC(=O)/C=C/c1ccccc1 [methyl cinnamate] (assay: log2 ratio of iodoacetamide-alkyne labeling of the cysteine site, DMSO over compound (competition); higher = stronger covalent engagement of the cysteine by the compound, active = 1 or more). Conditions: 500 µM; treatment time 1 h; system: HEK293T cell lysate.
How it was run: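 Three replicates, each with duplicate channels, were prepared from HEK293T lysate (2 mg/mL) treated with vehicle or electrophile at 500 µM for 1 h at ambient temperature. Iodoacetamide alkyne was then applied for 1 h, and samples were clicked to sCIP-TMT reagents, pooled, trypsin-digested overnight at 37 °C, enriched on streptavidin, acid-eluted and analysed on Orbitrap Eclipse LC-MS/MS with FAIMS, with FragPipe quantification. The log2 competition ratio per cysteine is the mean control-channel divided by the mean compound-channel reporter intensity. Cysteines quantified in only one replicate were left out.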

log2 ratio of iodoacetamide-alkyne labeling, inactive:
LONP1 C637 (UniProt P36776) 0.247
UniProt P42126_C173 -0.0225
ETV6 C8 (UniProt P41212) 0.291
UniProt P31270_C93 0.201
MYH9 C988 (UniProt P35579) 0.281
PPP2R1A C154 (UniProt P30153) 0.153
AKT2 C311 (UniProt P31751) 0.348
PPP2R1A C294 (UniProt P30153) 0.0156
UniProt P42677_C77 0.248
MDH2 C285 (UniProt P40926) 0.373
MYH9 C1379 (UniProt P35579) 0.179
ACAA2 C128 (UniProt P42765) 0.405
RPL3 C114 (UniProt P39023) 0.119
MDH1 C137 (UniProt P40925) 0.152
TTK C229 (UniProt P33981) 0.399
CSK C31 (UniProt P41240) 0.321
LRPPRC C113 (UniProt P42704) 0.0998
STAT3 C259 (UniProt P40763) -0.144
UniProt P41743_C595 0.0809
EIF2S3 C96 (UniProt P41091) -0.26
UniProt P40855_C128 0.352
UniProt P30520_C18 0.154
TMPO C518 (UniProt P42166) 0.179
CPOX C198 (UniProt P36551) 0.225
MCM4 C509 (UniProt P33991) 0.189
WEE1 C251 (UniProt P30291) 0.194
LRPPRC C484 (UniProt P42704) 0.00399
WNT5A C182 (UniProt P41221) -0.086
HMOX2 C127 (UniProt P30519) 0.0666
RPL9 C134 (UniProt P32969) -0.0347
STAT1 C108 (UniProt P42224) 0.19
NCAPD3 C1293 (UniProt P42695) 0.339
GDI1 C302 (UniProt P31150) -0.056
TMPO C341 (UniProt P42166) 0.33
KIF5B C174 (UniProt P33176) 0.148
LONP1 C682 (UniProt P36776) 0.222
PPP2R1A C148 (UniProt P30153) -0.0147

A portion from further up, as a working copy:
log2 ratio of iodoacetamide-alkyne labeling, inactive:
MDH1 C137 (UniProt P40925) 0.152
TTK C229 (UniProt P33981) 0.399
CSK C31 (UniProt P41240) 0.321
LRPPRC C113 (UniProt P42704) 0.0998
STAT3 C259 (UniProt P40763) -0.144
UniProt P41743_C595 0.0809
EIF2S3 C96 (UniProt P41091) -0.26
UniProt P40855_C128 0.352
UniProt P30520_C18 0.154
TMPO C518 (UniProt P42166) 0.179
